Source: US7582786B2, “Synthetic catalytic free radical scavengers useful as antioxidants for prevention and therapy of disease” (Eukarion Inc., priority 1996, dated 2009)
Some entries share one result that the patent states for a list of compounds. At least one structure is not confirmed: it was looked up by name or label, or the drawing left a doubt.

System: Human dermal fibroblasts (HF cells)
Assay: Cell protection assay, tert-butylhydroperoxide (t-BHP) toxicity, XTT
Assay type: cell-based
Conditions: t-BHP 0.5 mM
Experimental: Human dermal fibroblasts (HF cells) were obtained from the American type tissue Culture Collection at passage 1 and cultured and propagated in a medium (HF medium) consisting of Dulbecco's Modified Eagle's Medium with 4.5 g/l D-glucose, 10% calf serum 4 mM glutamine, 50 units/ml penicillin, and 50 μg/ml streptomycin in a 37° C. humidified incubator equilibrated with 5% CO2. Cells were used at passages 5 or 6 for experiments. For cell protection assays, HF cells were seeded at a density of about 15,000 cells per cm2 onto 96-well culture plates and allowed to grow to confluence. To assess protection tert-butylhydroperoxide (t-BHP) toxicity, confluent cell layers were first treated with the indicated concentrations of test compounds dissolved in HF medium for 18 hr. The medium was then replaced with fresh medium containing test compounds and 0.5 mM tert-butylhydroperoxide (t-BHP) and cells were incubated for another 18 hr. The medium was then removed and replaced with fresh HF medium (100 μl per well) without test compounds or t-BHP. […] After 2 hr., the absorbance at 490 nm was measured in a BioRad (Richmond, Calif.) Model 3550 plate-reader, using a reference wavelength of 655 nm. […] Absorbance measurements for blank wells, containing HF medium and XTT reagent but no cells, were also determined. […] Fresh HF medium was then added and cell viability assessed using the XTT reagent as described above. […]

## [Cl][Mn]1[O]c2ccccc2C=NCCN=Cc2ccccc2[O]1 [Compound C7]
  concentration at which protection was observed: ≥ 5 µM
